Source: EPA's CvTdb concentration-time database

Tests used:
[1] = test system: Rat; test: concentration in blood after dosing; details: 0.5 h; dosed: Benzophenone; 10 mg/kg; oral; Male; F344
[2] = test system: Rat; test: concentration in blood after dosing; details: 0.5 h; dosed: Benzophenone; 5 mg/kg; oral; Male; F344
[3] = test system: Rat; test: concentration in blood after dosing; details: 0.5 h; dosed: Benzophenone; 10 mg/kg; oral; Female; F344
[4] = test system: Mouse; test: concentration in plasma after dosing; details: 2.5 h; dosed: Benzophenone; 15 mg/kg; iv; Male; B6C3F1
[5] = test system: Rat; test: concentration in plasma after dosing; details: dosed: Benzophenone, 5 mg/kg, oral, Female, F344
[6] = test system: Mouse; test: concentration in plasma after dosing; details: 1.5 h; dosed: Benzophenone; 30 mg/kg; oral; Male; B6C3F1
[7] = test system: Mouse; test: concentration in plasma after dosing; details: 1.5 h; dosed: Benzophenone; 15 mg/kg; iv; Male; B6C3F1
[8] = test system: Rat; test: concentration in plasma after dosing; details: dosed: Benzophenone, 10 mg/kg, oral, Female, F344
[9] = test system: Mouse; test: concentration in plasma after dosing; details: 3 h; dosed: Benzophenone; 30 mg/kg; oral; Male; B6C3F1
[10] = test system: Mouse; test: concentration in plasma after dosing; details: 0.125 h; dosed: Benzophenone; 15 mg/kg; oral; Male; B6C3F1
[11] = test system: Rat; test: concentration in plasma after dosing; details: dosed: Benzophenone, 5 mg/kg, oral, Female, F344; remark: listed apart in the source
[12] = test system: Mouse; test: concentration in plasma after dosing; details: 0.75 h; dosed: Benzophenone; 15 mg/kg; iv; Female; B6C3F1
[13] = test system: Mouse; test: concentration in plasma after dosing; details: 0.75 h; dosed: Benzophenone; 15 mg/kg; oral; Female; B6C3F1
[14] = test system: Mouse; test: concentration in plasma after dosing; details: 1.5 h; dosed: Benzophenone; 15 mg/kg; oral; Male; B6C3F1
[15] = test system: Mouse; test: concentration in plasma after dosing; details: 0.25 h; dosed: Benzophenone; 15 mg/kg; iv; Male; B6C3F1
[16] = test system: Mouse; test: concentration in plasma after dosing; details: 1.5 h; dosed: Benzophenone; 15 mg/kg; iv; Female; B6C3F1
[17] = test system: Mouse; test: concentration in plasma after dosing; details: 2.5 min; dosed: Benzophenone; 15 mg/kg; oral; Female; B6C3F1
[18] = test system: Rat; test: concentration in plasma after dosing; details: dosed: Benzophenone, 5 mg/kg, oral, Female, F344; remark: listed apart in the source
[19] = test system: Mouse; test: concentration in plasma after dosing; details: 0.25 h; dosed: Benzophenone; 15 mg/kg; oral; Female; B6C3F1
[20] = test system: Mouse; test: concentration in plasma after dosing; details: 1.5 h; dosed: Benzophenone; 30 mg/kg; oral; Female; B6C3F1
[21] = test system: Mouse; test: concentration in plasma after dosing; details: 2.5 min; dosed: Benzophenone; 30 mg/kg; oral; Male; B6C3F1
[22] = test system: Mouse; test: concentration in plasma after dosing; details: 1 h; dosed: Benzophenone; 15 mg/kg; iv; Female; B6C3F1
[23] = test system: Mouse; test: concentration in plasma after dosing; details: 0.75 h; dosed: Benzophenone; 15 mg/kg; oral; Female; B6C3F1; remark: listed apart in the source
[24] = test system: Rat; test: concentration in plasma after dosing; details: dosed: Benzophenone, oral, F344
[25] = test system: Mouse; test: concentration in plasma after dosing; details: 1 h; dosed: Benzophenone; 15 mg/kg; oral; Male; B6C3F1
[26] = test system: Mouse; test: concentration in plasma after dosing; details: 2 h; dosed: Benzophenone; 15 mg/kg; oral; Female; B6C3F1
[27] = test system: Mouse; test: concentration in plasma after dosing; details: 6 h; dosed: Benzophenone; 30 mg/kg; oral; Female; B6C3F1
[28] = test system: Mouse; test: concentration in plasma after dosing; details: 0.5 h; dosed: Benzophenone; 15 mg/kg; iv; Male; B6C3F1
[29] = test system: Mouse; test: concentration in plasma after dosing; details: 0.25 h; dosed: Benzophenone; 30 mg/kg; oral; Male; B6C3F1

O=C(c1ccccc1)c1ccccc1 [Benzophenone]
Details	concentration in blood [ng/mL]	concentration in plasma [ng/mL]
[1]	1300	–
[2]	637	–
[3]	983	–
[4]	–	43.1
[6]	–	204
[7]	–	163
[9]	–	57
[10]	–	755
[12]	–	587
[13]	–	222
[14]	–	69.3
[15]	–	2870
[16]	–	213
[17]	–	227
[19]	–	2680
[20]	–	182
[21]	–	1290
[22]	–	377
[23]	–	158
[25]	–	132
[26]	–	103
[27]	–	21.6
[28]	–	913
[29]	–	581

Details	concentration in plasma [ng/mL]
[5], 2 h	167
[5], 5 min	133
[8], 0.25 h	417
[8], 24 h	32.9
[11], 0.25 h	255
[11], 24 h	12.1
[18], 0.5 h	174
[18], 10 h	67

concentration in plasma [ng/mL], [24]
Details	5 mg/kg	10 mg/kg
0.125 h, Female	195	470
0.125 h, Male	166	327
0.25 h, Female	236	375
0.25 h, Male	296	305
0.5 h, Female	269	543
0.5 h, Male	144	383
1 h, Female	145	180
1 h, Male	128	281
2 h, Female	106	290
2 h, Male	48.5	257
2.5 min, Female	52.2	34.4
2.5 min, Male	49.7	38.2
3 h, Female	82.8	163
3 h, Male	89.7	222
5 min, Female	145	257
5 min, Male	71.8	363
6 h, Female	68.1	111
6 h, Male	73.1	145
10 h, Female	69.4	94
10 h, Male	75.9	105
10 min, Female	134	296
10 min, Male	180	458
16 h, Female	18.1	30
16 h, Male	25.9	72.2
24 h, Female	11.8	37.9
24 h, Male	25.3	48.5
